Results: PMC8899572

T1: activating transcription 4 (ATF4) (rat (endogenous in H9c2)) (UniProt Q9ES19)
T1 sequence: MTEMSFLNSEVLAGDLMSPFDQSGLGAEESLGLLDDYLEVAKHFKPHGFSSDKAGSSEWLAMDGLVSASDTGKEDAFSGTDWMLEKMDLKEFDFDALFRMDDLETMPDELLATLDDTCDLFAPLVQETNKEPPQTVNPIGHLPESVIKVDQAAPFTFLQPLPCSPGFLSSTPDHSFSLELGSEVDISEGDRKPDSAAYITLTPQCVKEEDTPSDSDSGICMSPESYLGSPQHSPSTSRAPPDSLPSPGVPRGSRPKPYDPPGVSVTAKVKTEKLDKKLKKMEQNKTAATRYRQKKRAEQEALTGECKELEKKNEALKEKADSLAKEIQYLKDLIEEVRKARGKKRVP

B1: activating transcription 4 (ATF4) (protein, UniProt Q9ES19 1-347)
chain: T1 sequence

Experiments:
[1] = target: T1, activating transcription 4 (ATF4) (rat (endogenous in H9c2)); experiment: co-IP; cytoplasmic (cytosolic) lysates (0.5 mg) of H9c2 cells treated with AngII (1 uM) with or without TP (10 ug/L) for 1 h; primary antibody (5 ug) at 4 C overnight, Protein A/G magnetic beads, immunoblot; IP with anti-FoxP3 or with anti-ATF4
[2] = target: T1, activating transcription 4 (ATF4) (rat (endogenous in H9c2)); experiment: co-IP; nuclear lysates (0.5 mg) of H9c2 cells treated with AngII (1 uM) with or without TP (10 ug/L) for 1 h; primary antibody (5 ug) at 4 C overnight, Protein A/G magnetic beads, immunoblot; IP with anti-FoxP3 or with anti-ATF4
[3] = target: Forkhead/winged helix transcriptional factor P3 (FoxP3) (rat (endogenous in H9c2)); experiment: co-IP; cytoplasmic (cytosolic) lysates (0.5 mg) of H9c2 cells treated with AngII (1 uM) with or without TP (10 ug/L) for 1 h; primary antibody (5 ug) at 4 C overnight, Protein A/G magnetic beads, immunoblot; IP with anti-FoxP3 or with anti-ATF4
[4] = target: Forkhead/winged helix transcriptional factor P3 (FoxP3) (rat (endogenous in H9c2)); experiment: co-IP; nuclear lysates (0.5 mg) of H9c2 cells treated with AngII (1 uM) with or without TP (10 ug/L) for 1 h; primary antibody (5 ug) at 4 C overnight, Protein A/G magnetic beads, immunoblot; IP with anti-FoxP3 or with anti-ATF4

Molecule | binding [1] | binding [2] | binding [3] | binding [4]
Forkhead/winged helix transcriptional factor P3 (FoxP3) (rat (endogenous in H9c2)) | no binding (only in cytosolic lysates) | binds | – | –
B1 | – | – | no binding (only in cytosolic lysates) | binds

These are yes or no findings as the source states them, for the method shown. Binding seen in cells or lysates may run through a third protein. For some of these results: Binding calls can cover weak binding; strength is not graded here.
